The list shows a part of the results. Residues, ends and D or L forms follow the SMILES beside them. *: point of attachment. Cbz = O=C(OCc1ccccc1)*
How the values were obtained:
Assay in all cases: log2 fold change, soluble protein after heating vs DMSO (PISA); higher = thermal stabilisation; K562 cells, 10 uM, 30 min; active = over 0.2 and 3.5 SD of the protein, either way, in both replicates (recomputed)
[1] = compound: C#Cc1cccc(Nc2ncnc3cc(OCCOC)c(OCCOC)cc23)c1 [erlotinib]
Procedure, shortened: (§1)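 K562 cells at 2×10^6 cells/mL were given 10 μM compound for 30 min. Aliquots then went through 3 min of heating across 48°C-58°C, were pooled, and were extracted in PBS with 0.5% NP-40 at 4°C, and the supernatant after 21,000xg for 90 min was quantified by TMTpro 16plex LC-MS/MS with channel sums equalised. Thermal stability relative to control samples, from duplicates, is given as log2 fold change.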

By UniProt entry, the sequences of proteins in these tests, tags left out. Where a name states a change or a piece, a line headed by the entry shows the natural chain unless it says otherwise.
UniProt Q9UHF1: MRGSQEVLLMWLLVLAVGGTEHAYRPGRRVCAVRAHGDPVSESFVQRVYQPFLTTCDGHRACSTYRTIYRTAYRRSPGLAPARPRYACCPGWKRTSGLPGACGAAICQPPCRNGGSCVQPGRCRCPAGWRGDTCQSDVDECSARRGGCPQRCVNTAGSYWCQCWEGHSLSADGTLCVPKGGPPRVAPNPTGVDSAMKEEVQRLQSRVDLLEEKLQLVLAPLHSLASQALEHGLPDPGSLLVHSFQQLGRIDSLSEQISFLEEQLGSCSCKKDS
UniProt Q6ZTU2, whole entry, looked up: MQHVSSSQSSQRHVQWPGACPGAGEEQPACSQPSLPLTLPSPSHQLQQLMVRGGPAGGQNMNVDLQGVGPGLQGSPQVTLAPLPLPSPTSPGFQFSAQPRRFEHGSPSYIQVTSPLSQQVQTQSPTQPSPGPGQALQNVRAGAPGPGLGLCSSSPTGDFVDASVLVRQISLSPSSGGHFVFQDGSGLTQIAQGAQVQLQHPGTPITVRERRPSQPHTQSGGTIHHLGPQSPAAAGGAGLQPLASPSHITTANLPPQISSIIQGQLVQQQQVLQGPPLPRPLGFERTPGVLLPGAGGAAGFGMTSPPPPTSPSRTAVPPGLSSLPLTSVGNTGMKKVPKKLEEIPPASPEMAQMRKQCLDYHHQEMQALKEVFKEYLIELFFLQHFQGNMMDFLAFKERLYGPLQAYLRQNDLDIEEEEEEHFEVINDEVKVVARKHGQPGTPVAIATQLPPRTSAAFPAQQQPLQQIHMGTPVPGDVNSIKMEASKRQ
UniProt Q5JPI9: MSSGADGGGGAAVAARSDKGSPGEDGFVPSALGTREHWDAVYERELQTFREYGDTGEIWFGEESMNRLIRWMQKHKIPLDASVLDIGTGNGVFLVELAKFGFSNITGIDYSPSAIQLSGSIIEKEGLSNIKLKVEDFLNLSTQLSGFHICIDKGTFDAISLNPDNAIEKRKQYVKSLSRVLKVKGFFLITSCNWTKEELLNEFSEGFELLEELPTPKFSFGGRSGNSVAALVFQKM
UniProt Q04637, whole entry, looked up: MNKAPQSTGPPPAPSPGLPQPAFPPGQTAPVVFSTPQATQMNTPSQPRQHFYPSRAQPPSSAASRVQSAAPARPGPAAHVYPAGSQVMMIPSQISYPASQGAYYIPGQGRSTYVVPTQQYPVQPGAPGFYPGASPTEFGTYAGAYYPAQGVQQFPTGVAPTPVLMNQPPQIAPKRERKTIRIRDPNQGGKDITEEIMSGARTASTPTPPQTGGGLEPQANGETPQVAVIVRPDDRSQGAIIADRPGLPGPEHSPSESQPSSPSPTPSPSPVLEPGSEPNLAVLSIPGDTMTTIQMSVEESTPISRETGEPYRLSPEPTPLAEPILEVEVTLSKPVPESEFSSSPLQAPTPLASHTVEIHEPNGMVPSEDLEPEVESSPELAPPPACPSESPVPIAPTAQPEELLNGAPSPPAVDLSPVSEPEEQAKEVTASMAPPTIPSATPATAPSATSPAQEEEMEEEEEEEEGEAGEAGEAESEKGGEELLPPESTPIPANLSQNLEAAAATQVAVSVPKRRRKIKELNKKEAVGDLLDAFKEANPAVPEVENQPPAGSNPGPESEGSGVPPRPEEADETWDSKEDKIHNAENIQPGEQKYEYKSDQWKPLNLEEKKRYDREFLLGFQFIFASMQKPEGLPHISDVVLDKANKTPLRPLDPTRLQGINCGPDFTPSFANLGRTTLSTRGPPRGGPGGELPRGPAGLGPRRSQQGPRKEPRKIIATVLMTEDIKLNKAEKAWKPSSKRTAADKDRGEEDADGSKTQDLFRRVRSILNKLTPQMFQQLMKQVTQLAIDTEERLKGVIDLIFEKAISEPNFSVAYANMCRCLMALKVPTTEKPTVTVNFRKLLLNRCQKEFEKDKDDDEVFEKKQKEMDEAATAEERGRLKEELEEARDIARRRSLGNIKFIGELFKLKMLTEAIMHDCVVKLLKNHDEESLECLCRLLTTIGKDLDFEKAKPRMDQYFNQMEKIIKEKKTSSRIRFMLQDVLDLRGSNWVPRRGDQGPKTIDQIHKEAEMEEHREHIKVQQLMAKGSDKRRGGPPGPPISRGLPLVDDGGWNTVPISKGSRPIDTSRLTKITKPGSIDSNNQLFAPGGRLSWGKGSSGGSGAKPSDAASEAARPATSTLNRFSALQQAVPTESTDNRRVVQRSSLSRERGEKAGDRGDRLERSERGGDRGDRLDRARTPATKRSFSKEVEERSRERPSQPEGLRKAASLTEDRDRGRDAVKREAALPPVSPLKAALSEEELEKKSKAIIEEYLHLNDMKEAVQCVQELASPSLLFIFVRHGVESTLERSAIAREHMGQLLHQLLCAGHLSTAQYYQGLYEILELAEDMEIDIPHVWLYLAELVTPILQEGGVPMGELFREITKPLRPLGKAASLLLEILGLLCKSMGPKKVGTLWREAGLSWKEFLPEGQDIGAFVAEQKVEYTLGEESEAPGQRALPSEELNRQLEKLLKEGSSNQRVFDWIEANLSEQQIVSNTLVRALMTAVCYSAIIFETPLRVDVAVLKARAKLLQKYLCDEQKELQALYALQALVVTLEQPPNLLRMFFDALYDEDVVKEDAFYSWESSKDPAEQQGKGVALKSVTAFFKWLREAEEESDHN
UniProt Q9Y6B2: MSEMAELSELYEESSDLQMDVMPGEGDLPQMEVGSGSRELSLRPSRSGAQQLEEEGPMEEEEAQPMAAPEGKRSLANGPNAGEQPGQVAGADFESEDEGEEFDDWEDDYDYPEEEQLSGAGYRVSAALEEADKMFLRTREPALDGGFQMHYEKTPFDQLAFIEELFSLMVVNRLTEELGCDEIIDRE
UniProt Q8N5X7: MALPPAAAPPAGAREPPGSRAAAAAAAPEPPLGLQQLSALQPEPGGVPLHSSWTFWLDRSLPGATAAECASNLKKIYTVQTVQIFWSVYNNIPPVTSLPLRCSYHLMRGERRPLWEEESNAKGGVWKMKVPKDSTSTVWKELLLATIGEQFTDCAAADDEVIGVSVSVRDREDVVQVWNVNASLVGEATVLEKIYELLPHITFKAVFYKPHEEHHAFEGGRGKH
UniProt P0DPD8: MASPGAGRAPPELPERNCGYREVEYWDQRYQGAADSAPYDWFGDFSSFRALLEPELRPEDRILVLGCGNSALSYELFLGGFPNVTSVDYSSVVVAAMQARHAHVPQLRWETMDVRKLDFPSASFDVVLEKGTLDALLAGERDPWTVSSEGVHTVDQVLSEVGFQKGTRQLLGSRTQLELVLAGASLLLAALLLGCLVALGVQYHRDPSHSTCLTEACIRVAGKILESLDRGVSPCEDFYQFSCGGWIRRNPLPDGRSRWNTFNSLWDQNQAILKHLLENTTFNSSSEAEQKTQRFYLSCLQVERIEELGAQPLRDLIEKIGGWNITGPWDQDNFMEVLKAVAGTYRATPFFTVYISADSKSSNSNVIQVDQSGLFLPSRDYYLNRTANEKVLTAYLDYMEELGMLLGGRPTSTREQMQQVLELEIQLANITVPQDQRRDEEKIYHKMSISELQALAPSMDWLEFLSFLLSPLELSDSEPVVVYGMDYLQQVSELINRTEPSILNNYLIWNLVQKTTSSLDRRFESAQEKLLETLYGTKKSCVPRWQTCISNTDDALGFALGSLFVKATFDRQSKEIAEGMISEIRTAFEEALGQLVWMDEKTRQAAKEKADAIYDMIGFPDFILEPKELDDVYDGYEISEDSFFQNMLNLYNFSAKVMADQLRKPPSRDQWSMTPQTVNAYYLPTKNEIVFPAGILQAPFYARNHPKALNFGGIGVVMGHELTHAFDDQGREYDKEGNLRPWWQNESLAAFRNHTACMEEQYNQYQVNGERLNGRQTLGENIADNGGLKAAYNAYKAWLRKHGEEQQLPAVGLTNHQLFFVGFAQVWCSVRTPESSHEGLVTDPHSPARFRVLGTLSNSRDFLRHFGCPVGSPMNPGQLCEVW
UniProt Q9H0I2: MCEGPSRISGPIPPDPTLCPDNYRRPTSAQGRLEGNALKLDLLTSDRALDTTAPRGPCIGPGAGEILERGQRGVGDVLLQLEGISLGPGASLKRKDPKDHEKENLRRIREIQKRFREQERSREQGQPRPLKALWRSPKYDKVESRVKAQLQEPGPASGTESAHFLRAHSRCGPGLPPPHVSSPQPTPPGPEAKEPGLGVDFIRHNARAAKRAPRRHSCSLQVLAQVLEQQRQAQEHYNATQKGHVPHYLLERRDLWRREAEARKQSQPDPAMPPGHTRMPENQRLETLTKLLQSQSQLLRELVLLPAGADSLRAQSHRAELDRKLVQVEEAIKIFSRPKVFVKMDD
UniProt Q8NDI1: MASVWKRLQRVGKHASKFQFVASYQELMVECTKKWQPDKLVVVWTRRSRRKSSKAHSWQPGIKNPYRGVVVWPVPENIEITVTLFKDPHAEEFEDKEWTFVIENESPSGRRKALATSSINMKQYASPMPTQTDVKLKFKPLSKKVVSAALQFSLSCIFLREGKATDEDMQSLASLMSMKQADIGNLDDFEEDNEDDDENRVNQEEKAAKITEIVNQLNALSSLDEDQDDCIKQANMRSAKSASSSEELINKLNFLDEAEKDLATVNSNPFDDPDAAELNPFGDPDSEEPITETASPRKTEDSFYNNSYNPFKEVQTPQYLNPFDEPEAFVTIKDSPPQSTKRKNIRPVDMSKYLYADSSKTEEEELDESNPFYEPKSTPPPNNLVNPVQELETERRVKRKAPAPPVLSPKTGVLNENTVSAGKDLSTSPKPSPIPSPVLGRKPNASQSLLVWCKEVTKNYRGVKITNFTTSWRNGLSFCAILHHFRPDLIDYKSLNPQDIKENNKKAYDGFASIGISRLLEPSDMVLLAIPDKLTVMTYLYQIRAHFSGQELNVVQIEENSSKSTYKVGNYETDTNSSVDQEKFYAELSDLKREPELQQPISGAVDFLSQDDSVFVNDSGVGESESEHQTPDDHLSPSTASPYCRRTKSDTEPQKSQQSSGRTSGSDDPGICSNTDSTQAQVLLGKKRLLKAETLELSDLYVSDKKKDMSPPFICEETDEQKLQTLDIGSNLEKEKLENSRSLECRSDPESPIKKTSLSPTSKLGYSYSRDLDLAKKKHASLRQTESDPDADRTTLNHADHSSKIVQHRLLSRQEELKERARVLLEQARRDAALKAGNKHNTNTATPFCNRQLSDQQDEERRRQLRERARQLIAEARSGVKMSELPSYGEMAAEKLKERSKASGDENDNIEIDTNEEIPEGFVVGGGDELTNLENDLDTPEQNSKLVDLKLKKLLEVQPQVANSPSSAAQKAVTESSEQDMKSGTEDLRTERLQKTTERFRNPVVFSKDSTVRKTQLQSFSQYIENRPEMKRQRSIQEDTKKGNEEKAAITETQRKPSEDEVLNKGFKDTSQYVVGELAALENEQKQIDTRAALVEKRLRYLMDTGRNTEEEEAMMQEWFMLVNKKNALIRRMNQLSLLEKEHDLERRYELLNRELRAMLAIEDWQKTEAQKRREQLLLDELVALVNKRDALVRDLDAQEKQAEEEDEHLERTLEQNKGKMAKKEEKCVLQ
UniProt Q96C92: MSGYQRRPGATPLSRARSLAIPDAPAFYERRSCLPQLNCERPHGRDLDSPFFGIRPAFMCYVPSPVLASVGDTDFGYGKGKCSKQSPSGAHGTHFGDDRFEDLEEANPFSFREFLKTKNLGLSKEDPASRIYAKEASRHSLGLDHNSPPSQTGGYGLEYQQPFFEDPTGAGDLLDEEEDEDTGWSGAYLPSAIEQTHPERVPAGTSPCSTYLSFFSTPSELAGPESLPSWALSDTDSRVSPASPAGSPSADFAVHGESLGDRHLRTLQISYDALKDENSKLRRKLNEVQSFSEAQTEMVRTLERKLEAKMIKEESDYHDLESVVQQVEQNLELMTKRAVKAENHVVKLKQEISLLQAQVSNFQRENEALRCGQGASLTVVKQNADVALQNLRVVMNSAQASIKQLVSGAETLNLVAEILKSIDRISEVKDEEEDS
UniProt P29692: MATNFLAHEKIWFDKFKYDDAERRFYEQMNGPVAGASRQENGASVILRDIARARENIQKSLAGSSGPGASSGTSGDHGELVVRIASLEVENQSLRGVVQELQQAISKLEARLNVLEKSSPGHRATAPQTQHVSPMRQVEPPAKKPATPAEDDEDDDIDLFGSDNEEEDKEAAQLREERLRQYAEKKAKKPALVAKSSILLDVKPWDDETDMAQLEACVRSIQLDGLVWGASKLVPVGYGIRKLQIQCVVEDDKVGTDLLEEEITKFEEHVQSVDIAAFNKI
UniProt Q9H5J4: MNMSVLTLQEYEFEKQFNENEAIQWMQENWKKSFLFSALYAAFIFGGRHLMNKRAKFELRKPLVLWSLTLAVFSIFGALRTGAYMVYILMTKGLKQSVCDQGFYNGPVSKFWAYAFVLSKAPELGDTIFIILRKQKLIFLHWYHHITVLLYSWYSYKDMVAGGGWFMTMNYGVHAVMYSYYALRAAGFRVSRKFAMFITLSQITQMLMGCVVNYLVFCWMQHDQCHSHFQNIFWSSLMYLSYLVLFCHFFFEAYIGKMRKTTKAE

[2] = compound: C/C(=N\NC(=O)C1=CC(=CC=C1)S(=O)(=O)N2CCOCC2)/C3=C(C=CC(=C3)Cl)O
Procedure, shortened: as §1

[3] = compound: C1=CC(=C(C=C1Cl)C2=NC3=NC=CN=C3C(=N2)NC4=CC=NC=C4)F
Procedure, shortened: as §1

[4] = compound: C1=CC(=CC=C1C2=NC3=C(N2)C=C(C=C3)C(=O)N)OC4=CC=C(C=C4)Cl
Procedure, shortened: as §1

[5] = compound: C1=CC2=C(C=CC(=C2)/C=C\3/C(=O)NC(=NCC4=CC=CS4)S3)N=C1
Procedure, shortened: as §1

[6] = compound: C1=CC2=NC=CN=C2C=C1/C=C/3\C(=O)NC(=O)S3
Procedure, shortened: as §1

[7] = compound: C1=CC=C(C=C1)C2=NC(=C(N2)C3=CC=NC=C3)C4=CC(=C(C=C4)Cl)O
Procedure, shortened: as §1

[8] = compound: C1=CC=C2C(=C1)C3=NNC4=CC=CC(=C43)C2=O
Procedure, shortened: as §1

[9] = compound: C1CCN(C1)C(=O)NC2=CC=CC(=C2)NC3=NC=C(C(=N3)NCCC4=CN=CN4)Br
Procedure, shortened: as §1

[10] = compound: C1CN(CCC1(CC2=CC=C(C=C2)Cl)N)C3=NC=NC4=C3C=CN4
Procedure, shortened: as §1

[11] = compound: C1COCCN1CCN2C3=CC=CC=C3N=C2NC(=O)C4=CC(=CC=C4)[N+](=O)[O-] [IRAK-1-4 Inhibitor I]
Procedure, shortened: as §1

[12] = compound: C=CC(=O)N1CCC[C@@H](n2nc(-c3ccc(Oc4ccccc4)cc3)c3c(N)ncnc32)C1 [ibrutinib]
Procedure, shortened: as §1

[13] = compound: CC(=O)c1cnc2ccc(-c3cc(Cl)c(O)c(Cl)c3)nc2c1N[C@H]1CC[C@H](CN(C)C)CC1
Procedure, shortened: as §1

[14] = compound: CC(C)(C)Cn1c(N)nc2ccc(-c3[nH]c(C(C)(C)C)nc3-c3ccc(F)cc3)nc21 [ralimetinib]
Procedure, shortened: as §1

[15] = compound: CC(C)(O)CC(=O)NCCn1ccc2ncnc(Nc3ccc(Oc4cccc(C(F)(F)F)c4)c(Cl)c3)c21
Procedure, shortened: as §1

[16] = compound: CC(C)C1=C2N=C(C=C(N2N=C1)NCC3=CC=CC=C3)NCCCCCCN
Procedure, shortened: as §1

[17] = compound: CC(C)C[C@@H](C=O)NC(=O)[C@H](CC(C)C)NC(=O)[C@H](CC(C)C)NC(=O)OCc1ccccc1
Procedure, shortened: as §1

[18] = compound: CC(C)N(C[C@H]1O[C@@H](n2cnc3c(N)ncnc32)[C@H](O)[C@@H]1O)[C@H]1C[C@@H](CCc2nc3cc(C(C)(C)C)ccc3[nH]2)C1 [pinometostat]
Procedure, shortened: as §1

[19] = compound: CC1=C(C(CC(=O)N1)C2=CC=C(C=C2)C(F)(F)F)C(=O)NC3=C(C=C4C(=C3)C=NN4)F
Procedure, shortened: as §1

[20] = compound: CC1=C(C2=C(C=C1)C(=O)C3=CC=CC=C3N2CCCN)C
Procedure, shortened: as §1

Measured: log2 fold change

EIF3I (UniProt Q13347)
inactive: [1] 0.035 | [2] 0.076 | [3] -0.049 | [4] -0.056 | [5] 0.04 | [6] -0.008 | [7] -0.004 | [8] 0.009 | [9] 0.004 | [10] -0.094 | [11] -0.121 | [12] -0.035 | [13] 0.019 | [14] 0.054 | [15] -0.073 | [16] -0.191 | [17] 0.078 | [18] 0.148 | [19] 0.017 | [20] -0.027

EIF4E isoform 2 (UniProt P06730)
inactive: [1] 0.084 | [2] -0.035 | [3] 0.056 | [4] -0.073 | [5] 0.01 | [6] 0.168 | [7] 0.074 | [8] 0.152 | [9] 0.181 | [10] 0.146 | [11] 0.066 | [12] 0.089 | [13] 0.308 | [14] -0.071 | [15] -0.016 | [16] 0.114 | [17] 0.012 | [18] -0.057 | [20] 0.027

EIF4A1 (UniProt P60842)
inactive: [1] 0.036 | [2] 0.049 | [3] 0.047 | [4] -0.023 | [5] 0.016 | [6] -0.021 | [7] 0.007 | [8] 0.035 | [9] -0.039 | [10] 0.054 | [11] -0.008 | [12] -0.022 | [13] -0.131 | [14] 0.026 | [15] -0.151 | [16] -0.124 | [17] -0.001 | [18] 0.016 | [20] 0.017

ENGASE (UniProt Q8NFI3)
inactive: [1] 0.031 | [2] 0.034 | [3] 0.017 | [4] 0.017 | [5] 0.072 | [6] 0.088 | [7] -0.034 | [8] 0.057 | [9] -0.01 | [10] 0.002 | [11] 0.036 | [12] -0.028 | [13] -0.05 | [14] -0.001 | [15] -0.037 | [16] 0.005 | [17] 0.082 | [18] -0.006 | [19] 0.029 | [20] 0.005

ENTPD3 (UniProt O75355)
inactive: [11] -0.302 | [18] -0.143

EEF1AKMT1 (UniProt Q8WVE0)
inactive: [3] 0.016 | [15] -0.207

ENO2 (UniProt U3KQQ1)
inactive: [6] -0.021 | [11] 0.088 | [12] 0.22 | [18] 0

EEF2K (UniProt O00418)
inactive: [1] -0.064 | [3] -0.137 | [4] -0.024 | [7] 0.027 | [14] 0.126 | [15] -0.047 | [16] -0.245 | [17] 0.169

EIF5A (UniProt I3L397)
inactive: [7] -0.072 | [14] -0.307 | [17] 0.054

EGFL7 (UniProt Q9UHF1)
inactive: [2] 0.02 | [3] -0.209 | [5] 0.026 | [6] 0.124 | [8] -0.15 | [12] -0.232 | [13] -0.119 | [15] -0.003

ENPP2 isoform 2 (UniProt Q13822)
inactive: [3] -0.06 | [6] -0.031 | [12] 0.038 | [15] -0.032

EP400P1 isoform 6 (UniProt Q6ZTU2)
inactive: [7] 0.027 | [9] 0.02 | [10] -0.056 | [14] 0.022 | [17] -0.045 | [20] 0.039

EMC9 (UniProt Q9Y3B6)
inactive: [19] -0.02

EIF4B (UniProt F8VP89)
inactive: [2] -0.251 | [5] 0.244 | [6] 0.175 | [7] -0.054 | [8] -0.004 | [11] -0.156 | [12] 0.102 | [13] -0.065 | [14] -0.091 | [17] 0.042 | [18] 0.193 | [19] 0.244

ELK1 (UniProt P19419)
inactive: [11] 0.026 | [18] -0.111

ENO3 (UniProt K7EKN2)
inactive: [7] -0.177 | [14] 0 | [17] 0.126

ELMO2 (UniProt Q96JJ3)
inactive: [7] -0.021 | [14] -0.055 | [17] 0.024

EFR3A (UniProt Q14156)
inactive: [3] -0.055 | [15] 0.103 | [19] -0.013

EEF1AKMT2 (UniProt Q5JPI9)
inactive: [1] 0.115 | [4] 0.111 | [6] 0.017 | [12] 0.007 | [16] -0.206

EIF3E (UniProt E5RIT4)
inactive: [3] -0.252 | [15] 0.269

EIF4G1 (UniProt Q04637)
inactive: [2] 0.171 | [5] 0.018 | [8] -0.356 | [9] -0.301 | [10] -0.425 | [13] -0.334 | [20] 0.067

ENTPD7 (UniProt Q9NQZ7)
inactive: [1] 0.096 | [3] -0.028 | [4] -0.181 | [6] 0.063 | [9] -0.042 | [10] 0.037 | [11] -0.146 | [12] -0.013 | [15] 0.181 | [16] -0.043 | [18] -0.009 | [20] -0.016

EID1 (UniProt Q9Y6B2)
inactive: [1] -0.17 | [3] -0.425 | [4] 0.137 | [9] 0.092 | [10] 0.029 | [15] 0.002 | [16] 0.05 | [20] -0.281

EIF4E3 (UniProt Q8N5X7)
inactive: [1] 0.016 | [4] -0.035 | [7] 0.003 | [11] -0.085 | [14] -0.027 | [16] -0.055 | [17] -0.062 | [18] 0.152

EEF1AKMT4-ECE2 (UniProt P0DPD8)
inactive: [6] -0.012 | [11] 0.059 | [12] -0.204 | [18] -0.002

EIF3I (UniProt Q5TFK1)
inactive: [2] -0.037 | [5] 0.104 | [7] 0.09 | [8] -0.054 | [9] -0.063 | [10] 0.095 | [11] -0.152 | [13] -0.063 | [14] 0.09 | [17] -0.178 | [18] -0.053 | [20] 0.109

ELAVL4 (UniProt P26378)
inactive: [6] 0.033 | [7] 0.057 | [9] -0.066 | [10] 0.036 | [11] -0.036 | [12] -0.123 | [14] 0.298 | [17] 0.226 | [18] 0.356 | [19] 0.081 | [20] -0.022

ENKD1 (UniProt Q9H0I2)
inactive: [1] 0.271 | [4] -0.125 | [9] -0.081 | [10] 0 | [16] -0.043 | [20] -0.008

ENTPD4 (UniProt Q9Y227)
inactive: [1] -0.049 | [3] 0.198 | [4] 0.114 | [6] 0.118 | [9] -0.132 | [10] 0.078 | [11] -0.083 | [12] 0.111 | [15] -0.061 | [16] -0.084 | [18] 0.024 | [20] -0.065

Reprinted from the results shown (2 entries):
ENKD1 (UniProt Q9H0I2)
inactive: [1] 0.271 | [4] -0.125 | [9] -0.081 | [10] 0 | [16] -0.043 | [20] -0.008

ENTPD4 (UniProt Q9Y227)
inactive: [1] -0.049 | [3] 0.198 | [4] 0.114 | [6] 0.118 | [9] -0.132 | [10] 0.078 | [11] -0.083 | [12] 0.111 | [15] -0.061 | [16] -0.084 | [18] 0.024 | [20] -0.065

Remaining list, next part

ELOA (UniProt Q14241)
inactive: [3] -0.213 | [15] 0.046

EIF5A2 (UniProt Q9GZV4)
inactive: [2] 0.193 | [5] 0.118 | [6] 0.035 | [7] -0.013 | [8] 0.014 | [12] -0.195 | [13] -0.039 | [14] -0.02 | [17] 0.035

EPB41 isoform 4 (UniProt P11171)
inactive: [6] 0.043 | [7] -0.003 | [9] -0.11 | [10] -0.028 | [12] -0.229 | [14] 0.122 | [17] 0.035 | [20] -0.1

ELP5 isoform 2 (UniProt Q8TE02)
inactive: [1] 0.039 | [4] 0.137 | [16] 0.365

EHBP1 (UniProt Q8NDI1)
inactive: [2] -0.012 | [5] 0.086 | [8] 0.095 | [9] -0.132 | [10] 0.033 | [13] 0.018 | [20] -0.003

EPB41, A0A2R8Y783
inactive: [11] 0.049 | [18] 0.127 | [19] 0.107

ENTR1 (UniProt Q96C92)
inactive: [1] -0.015 | [4] 0.043 | [16] -0.156

EFHD1 (UniProt Q9BUP0)
inactive: [3] 0.213 | [9] 0.127 | [10] 0.1 | [15] 0 | [19] -0.12 | [20] -0.337

EEF1D isoform 3 (UniProt P29692)
inactive: [1] -0.009 | [4] 0.009 | [9] -0.16 | [10] -0.087 | [16] -0.27 | [20] 0.605

ELOVL6 (UniProt Q9H5J4)
inactive: [1] -0.298 | [4] 0.049 | [6] 0.075 | [7] 0.013 | [9] -0.014 | [10] 0.065 | [11] 0.084 | [12] -0.093 | [14] -0.005 | [16] -0.221 | [17] 0.063 | [18] -0.022 | [19] -0.043 | [20] 0.165

From the supplement of paper PMC10849652
